Results are given in words; binding and its absence hold for the method and conditions named.
Columns and labels:
[1] = target: human myelin protein P2 I43N (human) (UniProt P02689); assay: dynamic light scattering; triplicates at +25 °C; 0.6–0.9 mg/ml protein; 0.3 M NaCl, 20 mM HEPES pH 7.5; proteins stored on ice for 24 h after SEC; both purified
[2] = target: human myelin protein P2 I43N (human) (UniProt P02689); assay: SEC; Superdex 75 pg 16/600; 0.3 M NaCl, 1 mM DTT, 20 mM HEPES pH 7.5; last step of purification; both purified
[3] = target: human myelin protein P2 I52T (human) (UniProt P02689); assay: dynamic light scattering; triplicates at +25 °C; 0.6–0.9 mg/ml protein; 0.3 M NaCl, 20 mM HEPES pH 7.5; proteins stored on ice for 24 h after SEC; both purified
[4] = target: human myelin protein P2 I52T (human) (UniProt P02689); assay: SEC; Superdex 75 pg 16/600; 0.3 M NaCl, 1 mM DTT, 20 mM HEPES pH 7.5; last step of purification; both purified
[5] = target: human myelin protein P2, wild type (human) (UniProt P02689); assay: dynamic light scattering; triplicates at +25 °C; 0.6–0.9 mg/ml protein; 0.3 M NaCl, 20 mM HEPES pH 7.5; proteins stored on ice for 24 h after SEC; both purified

Amino acid sequences for entries named in this document (tags omitted). A change or cut given only in a name is not applied to a line headed by its entry.
UniProt P02689: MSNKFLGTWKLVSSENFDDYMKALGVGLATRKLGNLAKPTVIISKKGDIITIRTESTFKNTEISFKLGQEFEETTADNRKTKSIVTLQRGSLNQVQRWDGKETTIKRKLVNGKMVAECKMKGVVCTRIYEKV

In the case of “human myelin protein P2 I43N (from UniProt P02689 1-132)”, the binding [1] is reported as “no binding (tested: 0.6–0.9 mg/ml)” and the binding [2] is reported as “no binding”.
“human myelin protein P2 I52T (from UniProt P02689 1-132)” was tested, and the binding [3] was “no binding (tested: 0.6–0.9 mg/ml)” and the binding [4] was “no binding”.
“human myelin protein P2, wild type (from UniProt P02689 1-132)” was tested, and the binding [5] was “no binding (tested: 0.6–0.9 mg/ml)”.
